# Hit rate of the full screen: of about 400,000 compounds, about 5,500 (1.4%) were called active. The shares of active, inactive and inconclusive entries below differ from those in the screen. Calls come from the whole dose curve; as a rule, active = well fitted cell-killing curve with a large enough effect; inconclusive = small, poorly fitted or top-dose-only effect, or effect the other way; inactive = flat fitted curve, though single readings scatter. Potencies of inconclusive entries are doubtful fits and often do not repeat.
# Assay: qHTS assay for MDR1-selective chemotherapeutics: Primary screen using the parental adenocarcinoma cell KB-3-1; note: nearly all actives have a fitted effect of over 60% in size
# Conditions: KB-3-1 viability, CellTiter-Glo ATP luminescence, 72 h; activity change, negative = cytotoxic: at 46.1 µM (top of the series)
# Procedure, shortened: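 Screening of KB-3-1 cells (DMEM, 10% FBS, phenol-red free) ran from lowest to highest compound concentration; after 72 h at 37 °C viability was read luminescently and curves fitted.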
# % is set by controls: 0 for no effect and ±100 for the full control effect; potency is the fitted concentration of half-maximal effect.
SMILES,Potency,"activity change, negative = cytotoxic"
COCCCNC(=O)c1ccc(Cn2c(=O)c3ccccc3n(CC(=O)Nc3ccc(C)cc3C)c2=O)cc1,"inconclusive: 32.6 µM [cytotoxic, single point]",–
N#C/C(=N\Nc1ccc(Cl)cc1)C(=O)c1ccsc1,"inconclusive: 20.6 µM [cytotoxic, single point]",–
CCOc1ccc(C(=O)Nc2ccccc2C(=O)OCc2cc(=O)n3nc(C4CC4)sc3n2)cc1,–,inactive: -3.73%
CCC(C)(C(=O)NC1CCCC1)N(Cc1ccco1)C(=O)Cc1cccs1 (stereo unspecified),"inconclusive: 7.31 µM [cytotoxic, partial curve]",–
CCCCCCN(CCCCCC)c1ccc(/C=C/c2ccnc3ccccc23)cc1,"inconclusive: 29.1 µM [rising, single point]",–
COc1ccc(C2/C=C\CC(NS(=O)(=O)c3ccc(C)cc3)CC(=O)N2Cc2ccccc2F)cc1 (stereo unspecified),"inconclusive: 23.1 µM [cytotoxic, partial curve, poor fit]",–
Cc1cccc(N2CC(c3nc4ccccc4n3CCC3CCCCC3)CC2=O)c1 (stereo unspecified),"inconclusive: 14.6 µM [cytotoxic, partial curve]",–
Cc1cccc2c1-c1sc(C(=O)NCc3ccc(Cl)cc3)cc1CO2,–,inactive: 9.34%
COc1cccc2nc3c(C(=O)NCCN(C)C)cccc3cc12,"inconclusive: 23.1 µM [cytotoxic, partial curve, poor fit]",–
Cc1ccc(C)c(S(=O)(=O)ON2C(=O)c3ccccc3C2=O)c1,"inconclusive: 8.2 µM [cytotoxic, partial curve, poor fit]",–
Cc1ccc2c(C)c(C(=O)N(Cc3ccc(N(C)C)cc3)C3CCS(=O)(=O)C3)oc2c1 (stereo unspecified),"inconclusive: 32.6 µM [cytotoxic, single point]",–
CC(C)(C)N1CC(c2nc3ccccc3n2CCOc2ccccc2)CC1=O (stereo unspecified),–,inactive: 2.81%
Cc1ccc(-c2c[n+](CC(=O)Nc3nc(-c4ccccc4)cs3)c3n2CCC3)cc1,–,inactive: -16.7%
COc1ccc2[nH]c(=O)c(C3c4cc(OC)c(OC)cc4CCN3C(=O)c3ccco3)cc2c1 (stereo unspecified),–,inconclusive: -1.53%
COc1ccc(-c2ccc([C@H]3[C@H]4C=CC[C@@H](C)[C@@H]4C(=O)N3Cc3ccccc3)c(F)c2)cc1OC,"inconclusive: 23.1 µM [cytotoxic, single point]",–
CCc1ccccc1OCCCOc1ccc(OC)cc1,–,inactive: -13.3%
COc1cccc(CNc2ccc(N3CCCCC3)cc2)c1OC,"inconclusive: 20.6 µM [cytotoxic, partial curve, poor fit]",–
CC(C)(C)C(=O)c1cn(CC(=O)O)c2ccccc12,"inconclusive: 29.1 µM [rising, single point]",–
O=c1c2cc(Br)ccc2nc(-c2cccc(C(F)(F)F)c2)n1O,active: 2.91 µM,–
COc1ccc(-n2nc(C(=O)NCCc3ccc(OC)c(OC)c3)c3c4ccccc4n(C)c3c2=O)cc1Cl,–,inactive: 9.84%
Cc1ccc(N2CCN(c3c(CN4CCCC4)c(=O)oc4ccccc34)CC2)c(C)c1,–,inactive: -7.28%
O=C(NN=Cc1cc([N+](=O)[O-])ccc1O)c1cccc2ccccc12,"inconclusive: 29.1 µM [cytotoxic, single point]",–
CCc1nnc(NC(=O)CSc2nnc(-c3ccco3)n2CC)s1,"inconclusive: 16.4 µM [cytotoxic, single point]",–

SMILES,Potency,"activity change, negative = cytotoxic"
CCC(c1nnnn1-c1ccc2c(c1)OCCO2)N1CCN(c2ccc(C)cc2)CC1 (stereo unspecified),active: 18.4 µM,–
Nc1ccc2c(c1)Cc1cc(N)c(Br)cc1-2,"inconclusive: 29.1 µM [cytotoxic, single point]",–
COc1cc(C)ccc1OCCCOc1ccccc1Br,–,inactive: -0.871%
N/C(=N\OC(=O)N1CCOCC1)c1ccc(Br)cc1,–,inactive: -15.6%
COc1ccc(-c2cnc3c(NC(C)=O)cc(-c4cc(F)ccc4OC)cn23)cc1OC,"inconclusive: 29.1 µM [cytotoxic, single point]",–
Cc1cccc(N2CCN(C(=O)c3ccncc3)CC2)c1C,active: 10.3 µM,–
COc1ccc(C(C)(O)c2nc(-c3cccc(C#N)c3)cs2)cc1 (stereo unspecified),"inconclusive: 29.1 µM [cytotoxic, single point]",–
O=C(COCc1cc(-c2ccco2)on1)Nc1cccc(O)c1,–,inactive: -0.432%
NS(=O)(=O)c1cc(C(=O)N2CCNC(=O)C2)ccc1Cl,–,inactive: 7.62%
Cc1ccc(-c2nc3c(cnn3-c3ccccc3)c(=O)n2-c2cccc(Cl)c2)cc1,"inconclusive: 20.6 µM [cytotoxic, single point]",–
Cc1c(Cl)cccc1NC(=S)NNc1ncc(C(F)(F)F)cc1Cl,"inconclusive: 20.6 µM [cytotoxic, partial curve]",–
COc1cc(OC)c(N(C)C(=O)C2CCCN(c3ncnc4c3nc3n4CCCCC3)C2)cc1Cl (stereo unspecified),–,inactive: -5.15%
O=P(C1=C(N2CCOCC2)/C(=C\c2ccccc2)CC1)(N1CCOCC1)N1CCOCC1,–,inactive: 0.924%
Cc1ccc2sc(N(CCN(C)C)C(=O)c3ccc4ccccc4c3)nc2c1C,"inconclusive: 29.1 µM [cytotoxic, partial curve, poor fit]",–
C/C(=N\Nc1ccc(C)c(Cl)c1)c1cccnc1,–,inactive: 0.0238%
O=C(/C(=C/O)N=Nc1ccc(Cl)cc1)c1ccncc1,active: 13 µM,–
O=C1C(c2ccc(F)cc2)N(Cc2ccc3c(c2)OCO3)C(=O)CN1C1CCCCCC1 (stereo unspecified),"inconclusive: 29.1 µM [cytotoxic, single point]",–
Cc1c(C(=O)Nc2ccc(S(=O)(=O)N(C)C3CCN(C)CC3)cc2)oc2c(Cl)cccc12,"inconclusive: 29.1 µM [cytotoxic, single point]",–
O=C(N/N=C/c1ccc(Cl)cc1Cl)c1n[nH]c2c1CCCC2,active: 5.17 µM,–
O=C(Cn1cc2c(n1)CCCCC2)NCc1ccccc1,–,inconclusive: -0.341%
O=C(N1CCOCC1)N1CCN(c2ccccc2)CC1,"inconclusive: 20.6 µM [rising, partial curve, poor fit]",–
CN(Cc1ccc2c(c1)OCCO2)C(=O)CN1C(=O)NC2(CCCCC2)C1=O,–,inactive: -1.92%
COc1ccccc1S(=O)(=O)Cc1ccc(C(=O)N2CCN(c3cccc(Cl)c3)CC2)o1,active: 6.51 µM,–

# Filtered by structure, the entries above with a furan ring, fused or not.
SMILES,Potency,"activity change, negative = cytotoxic"
CCC(C)(C(=O)NC1CCCC1)N(Cc1ccco1)C(=O)Cc1cccs1 (stereo unspecified),"inconclusive: 7.31 µM [cytotoxic, partial curve]",–
Cc1ccc2c(C)c(C(=O)N(Cc3ccc(N(C)C)cc3)C3CCS(=O)(=O)C3)oc2c1 (stereo unspecified),"inconclusive: 32.6 µM [cytotoxic, single point]",–
COc1ccc2[nH]c(=O)c(C3c4cc(OC)c(OC)cc4CCN3C(=O)c3ccco3)cc2c1 (stereo unspecified),–,inconclusive: -1.53%
CCc1nnc(NC(=O)CSc2nnc(-c3ccco3)n2CC)s1,"inconclusive: 16.4 µM [cytotoxic, single point]",–
O=C(COCc1cc(-c2ccco2)on1)Nc1cccc(O)c1,–,inactive: -0.432%
Cc1c(C(=O)Nc2ccc(S(=O)(=O)N(C)C3CCN(C)CC3)cc2)oc2c(Cl)cccc12,"inconclusive: 29.1 µM [cytotoxic, single point]",–
COc1ccccc1S(=O)(=O)Cc1ccc(C(=O)N2CCN(c3cccc(Cl)c3)CC2)o1,active: 6.51 µM,–

# Source: PubChem BioAssay AID1347075 (National Center for Advancing Translational Sciences (NCATS), 2019)
